No constants are given. Whether binding was seen depends on the method and setting. Binding seen in cells or lysates may run through a third protein. Some results given as binding are weak or reduced against the parent protein; the word gives no strength. For some assays here: Sequences can lack the tags named with a protein.
Assays:
[1] = target: T1, Flag-TRAF2 (UniProt Q12933); test: co-IP; 293T cells co-transfected; lysates in NP40 buffer (50 mM Tris-HCl pH 7.4, 150 mM NaCl, 5 mM EDTA, 1% NP40) precipitated with anti-Flag agarose at 4°C for 4-6 hours; immunoblot
T1 sequence: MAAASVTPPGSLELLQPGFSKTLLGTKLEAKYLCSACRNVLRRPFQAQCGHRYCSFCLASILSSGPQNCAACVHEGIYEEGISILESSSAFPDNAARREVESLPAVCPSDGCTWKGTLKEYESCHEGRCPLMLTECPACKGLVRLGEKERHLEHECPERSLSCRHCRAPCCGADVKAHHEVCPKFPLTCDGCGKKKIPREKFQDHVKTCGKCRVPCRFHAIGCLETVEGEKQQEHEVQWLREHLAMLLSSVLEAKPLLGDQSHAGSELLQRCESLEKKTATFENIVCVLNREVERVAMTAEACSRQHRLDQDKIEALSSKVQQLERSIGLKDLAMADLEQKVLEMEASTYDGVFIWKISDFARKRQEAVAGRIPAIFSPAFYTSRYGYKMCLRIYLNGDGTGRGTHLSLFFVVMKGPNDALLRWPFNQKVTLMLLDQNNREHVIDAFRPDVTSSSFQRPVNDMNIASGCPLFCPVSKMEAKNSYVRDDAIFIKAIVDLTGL

The chains behind the UniProt entries cited, without tags or fusion partners. Residues count along the entry.
UniProt O00463: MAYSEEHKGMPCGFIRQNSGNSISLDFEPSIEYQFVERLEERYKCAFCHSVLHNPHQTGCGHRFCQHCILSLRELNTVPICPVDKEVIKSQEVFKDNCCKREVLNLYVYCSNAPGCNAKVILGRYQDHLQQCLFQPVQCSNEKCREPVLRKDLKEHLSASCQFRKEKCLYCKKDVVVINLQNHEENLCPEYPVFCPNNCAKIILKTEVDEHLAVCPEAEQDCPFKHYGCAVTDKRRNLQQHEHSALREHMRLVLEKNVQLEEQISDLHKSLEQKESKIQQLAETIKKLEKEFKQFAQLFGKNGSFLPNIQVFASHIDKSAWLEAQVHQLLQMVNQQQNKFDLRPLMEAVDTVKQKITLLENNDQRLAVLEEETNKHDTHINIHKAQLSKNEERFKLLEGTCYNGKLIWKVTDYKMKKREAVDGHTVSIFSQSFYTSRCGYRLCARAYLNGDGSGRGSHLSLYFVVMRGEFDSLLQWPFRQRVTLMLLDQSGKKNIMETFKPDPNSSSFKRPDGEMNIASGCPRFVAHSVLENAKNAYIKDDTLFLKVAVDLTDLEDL
UniProt Q7Z434, residues 142-540: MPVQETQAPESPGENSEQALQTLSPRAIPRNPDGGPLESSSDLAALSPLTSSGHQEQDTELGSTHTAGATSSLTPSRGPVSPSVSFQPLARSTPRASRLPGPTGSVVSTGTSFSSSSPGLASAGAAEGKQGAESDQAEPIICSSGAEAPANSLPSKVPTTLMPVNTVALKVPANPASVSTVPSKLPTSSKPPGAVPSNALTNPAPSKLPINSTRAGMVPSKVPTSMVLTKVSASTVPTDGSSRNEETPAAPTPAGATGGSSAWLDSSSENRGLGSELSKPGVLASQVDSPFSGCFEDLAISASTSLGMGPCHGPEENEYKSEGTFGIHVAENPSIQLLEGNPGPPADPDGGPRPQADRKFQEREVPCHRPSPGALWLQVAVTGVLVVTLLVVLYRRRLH

[2] = target: Flag-tagged TRAF5 (UniProt O00463); test: as above

“V5-tagged MAVS50 (from UniProt Q7Z434 142-540)” was tested, and the binding [1] was “binds” and the binding [2] was “binds”.

Reference: publication PMC4519330
